Data reported in publication PMC8881269.
These are yes or no findings as the source states them, for the method shown. In cells and extracts the contact can be indirect. Some binding calls cover weakened binding; strength is not graded here.

Amino acid sequences for entries named in this document (tags omitted).
UniProt Q96RU2: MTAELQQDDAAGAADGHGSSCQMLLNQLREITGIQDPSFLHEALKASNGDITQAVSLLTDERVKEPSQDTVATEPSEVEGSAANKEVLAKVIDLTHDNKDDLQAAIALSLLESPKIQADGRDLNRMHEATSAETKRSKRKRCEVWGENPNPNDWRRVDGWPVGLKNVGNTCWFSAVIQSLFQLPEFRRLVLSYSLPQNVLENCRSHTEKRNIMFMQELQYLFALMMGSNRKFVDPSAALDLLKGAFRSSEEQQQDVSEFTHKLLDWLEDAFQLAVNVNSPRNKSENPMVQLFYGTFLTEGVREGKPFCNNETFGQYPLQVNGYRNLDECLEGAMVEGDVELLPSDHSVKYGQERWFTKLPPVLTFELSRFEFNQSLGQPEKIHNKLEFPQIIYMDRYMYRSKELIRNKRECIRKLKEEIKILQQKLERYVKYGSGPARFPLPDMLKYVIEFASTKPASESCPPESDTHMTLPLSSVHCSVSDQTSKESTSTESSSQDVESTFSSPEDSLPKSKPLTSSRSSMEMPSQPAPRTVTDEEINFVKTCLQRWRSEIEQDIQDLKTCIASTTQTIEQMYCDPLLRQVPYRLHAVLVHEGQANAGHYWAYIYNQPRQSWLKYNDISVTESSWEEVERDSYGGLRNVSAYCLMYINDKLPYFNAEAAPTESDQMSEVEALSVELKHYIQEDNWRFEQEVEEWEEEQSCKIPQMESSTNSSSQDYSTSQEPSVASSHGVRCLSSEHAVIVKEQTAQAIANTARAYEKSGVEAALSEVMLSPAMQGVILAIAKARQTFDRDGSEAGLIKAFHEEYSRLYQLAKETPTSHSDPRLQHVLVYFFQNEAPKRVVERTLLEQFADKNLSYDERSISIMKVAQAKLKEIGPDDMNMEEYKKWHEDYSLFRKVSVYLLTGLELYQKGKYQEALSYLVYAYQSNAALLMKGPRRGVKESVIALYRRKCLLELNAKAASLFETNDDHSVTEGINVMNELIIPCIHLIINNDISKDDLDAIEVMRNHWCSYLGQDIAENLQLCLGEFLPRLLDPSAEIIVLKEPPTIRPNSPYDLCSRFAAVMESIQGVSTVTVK
UniProt Q14980: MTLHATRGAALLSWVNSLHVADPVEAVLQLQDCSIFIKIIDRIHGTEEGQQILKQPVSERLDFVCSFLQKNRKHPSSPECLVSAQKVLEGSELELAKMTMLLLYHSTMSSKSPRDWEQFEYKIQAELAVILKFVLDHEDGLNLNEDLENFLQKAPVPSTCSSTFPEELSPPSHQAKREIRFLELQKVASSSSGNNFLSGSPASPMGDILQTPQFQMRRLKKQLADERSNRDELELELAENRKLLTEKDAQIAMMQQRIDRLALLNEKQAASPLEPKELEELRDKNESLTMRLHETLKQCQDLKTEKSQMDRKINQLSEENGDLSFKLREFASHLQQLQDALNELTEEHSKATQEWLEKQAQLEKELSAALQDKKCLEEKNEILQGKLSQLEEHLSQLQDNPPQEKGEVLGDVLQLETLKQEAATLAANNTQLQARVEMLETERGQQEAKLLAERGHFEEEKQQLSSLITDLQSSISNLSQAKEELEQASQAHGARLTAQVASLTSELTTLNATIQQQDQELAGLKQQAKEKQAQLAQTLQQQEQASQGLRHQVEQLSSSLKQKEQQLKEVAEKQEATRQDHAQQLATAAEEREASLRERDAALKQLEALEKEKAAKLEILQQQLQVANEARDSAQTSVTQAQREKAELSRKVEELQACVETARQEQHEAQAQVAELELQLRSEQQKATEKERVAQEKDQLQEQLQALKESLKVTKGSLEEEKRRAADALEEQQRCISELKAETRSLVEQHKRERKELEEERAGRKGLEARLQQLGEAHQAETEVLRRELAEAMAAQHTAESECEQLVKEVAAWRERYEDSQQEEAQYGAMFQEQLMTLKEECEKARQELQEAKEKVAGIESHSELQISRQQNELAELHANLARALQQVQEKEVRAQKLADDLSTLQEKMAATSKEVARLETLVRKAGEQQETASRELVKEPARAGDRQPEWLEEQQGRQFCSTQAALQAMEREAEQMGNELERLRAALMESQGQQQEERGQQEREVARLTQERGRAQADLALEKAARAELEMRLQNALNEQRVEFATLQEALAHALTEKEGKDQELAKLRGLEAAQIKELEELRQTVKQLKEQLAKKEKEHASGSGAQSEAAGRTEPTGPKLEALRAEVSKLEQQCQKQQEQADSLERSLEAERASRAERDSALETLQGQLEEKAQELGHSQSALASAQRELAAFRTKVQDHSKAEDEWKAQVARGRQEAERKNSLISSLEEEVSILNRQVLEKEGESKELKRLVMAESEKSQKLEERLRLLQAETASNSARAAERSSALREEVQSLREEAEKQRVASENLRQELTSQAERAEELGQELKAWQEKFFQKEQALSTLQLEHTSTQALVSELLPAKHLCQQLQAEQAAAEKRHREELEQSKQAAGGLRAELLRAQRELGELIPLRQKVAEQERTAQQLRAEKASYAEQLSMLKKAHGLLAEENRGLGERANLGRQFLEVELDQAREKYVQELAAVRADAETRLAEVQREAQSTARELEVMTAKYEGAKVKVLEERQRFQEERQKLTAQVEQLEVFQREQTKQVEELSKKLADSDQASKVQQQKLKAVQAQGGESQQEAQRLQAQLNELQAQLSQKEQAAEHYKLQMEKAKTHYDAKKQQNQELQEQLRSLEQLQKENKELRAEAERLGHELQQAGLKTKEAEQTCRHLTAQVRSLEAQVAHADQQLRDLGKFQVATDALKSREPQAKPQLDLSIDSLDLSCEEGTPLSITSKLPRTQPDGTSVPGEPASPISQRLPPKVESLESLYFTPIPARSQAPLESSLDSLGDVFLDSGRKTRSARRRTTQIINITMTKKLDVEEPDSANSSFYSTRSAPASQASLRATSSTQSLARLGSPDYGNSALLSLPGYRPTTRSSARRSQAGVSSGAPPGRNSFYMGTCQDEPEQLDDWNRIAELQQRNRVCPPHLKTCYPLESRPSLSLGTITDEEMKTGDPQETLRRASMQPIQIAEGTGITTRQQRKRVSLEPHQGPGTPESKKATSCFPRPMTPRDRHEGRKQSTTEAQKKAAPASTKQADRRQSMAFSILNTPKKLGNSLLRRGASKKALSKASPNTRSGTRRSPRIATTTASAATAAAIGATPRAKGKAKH

Target: Ubiquitin Specific Peptidase 28 (human (endogenous in HCT116)) (UniProt Q96RU2)
Assay: co-IP; anti-USP28 antibody on magnetic beads; lysates of HCT116 cells untreated, treated with DCD or with aphidicolin; overnight at 4 °C; washes with 500 mM NaCl, 0.5% Triton X-100; immunoblot for USP28 and NuMA1

nuclear mitotic apparatus protein 1 (from UniProt Q14980 1-2115)
binding: binds
